From PubChem BioAssay AID540275 (National Center for Advancing Translational Sciences (NCATS), 2011)
Among all 320,000 compounds or so, about 620 (0.19%) were called active. The shares of active, inactive and inconclusive entries below differ from those in the screen. Rule as the data show it: active = activation above about 80%; inconclusive = between about 30% and that limit; inactive = weaker than that.
Also: 0% is about no effect.

Amino acid sequences for entries named in this document (tags omitted).
UniProt Q8NER1, whole entry, looked up: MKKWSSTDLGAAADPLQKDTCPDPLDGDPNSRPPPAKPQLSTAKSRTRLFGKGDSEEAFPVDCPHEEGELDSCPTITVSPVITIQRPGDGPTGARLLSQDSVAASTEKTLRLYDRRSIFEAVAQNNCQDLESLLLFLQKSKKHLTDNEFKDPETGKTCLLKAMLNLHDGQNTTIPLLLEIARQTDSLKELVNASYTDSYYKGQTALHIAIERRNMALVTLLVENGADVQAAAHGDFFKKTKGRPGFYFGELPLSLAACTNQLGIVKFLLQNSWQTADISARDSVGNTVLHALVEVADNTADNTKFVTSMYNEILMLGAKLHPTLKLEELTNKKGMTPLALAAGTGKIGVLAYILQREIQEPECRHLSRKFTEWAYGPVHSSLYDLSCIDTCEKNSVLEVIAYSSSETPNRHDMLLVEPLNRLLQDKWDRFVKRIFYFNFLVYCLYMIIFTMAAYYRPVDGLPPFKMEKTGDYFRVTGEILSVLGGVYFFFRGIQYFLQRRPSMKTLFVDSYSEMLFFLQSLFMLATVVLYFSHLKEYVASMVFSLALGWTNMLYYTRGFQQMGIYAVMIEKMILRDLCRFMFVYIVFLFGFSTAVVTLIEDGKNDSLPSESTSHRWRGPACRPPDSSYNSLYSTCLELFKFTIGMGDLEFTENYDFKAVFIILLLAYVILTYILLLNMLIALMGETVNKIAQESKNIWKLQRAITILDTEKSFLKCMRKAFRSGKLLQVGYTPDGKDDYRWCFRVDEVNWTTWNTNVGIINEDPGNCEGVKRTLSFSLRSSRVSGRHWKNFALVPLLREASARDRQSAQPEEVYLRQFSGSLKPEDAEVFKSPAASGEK

The molecules below were run against Transient receptor potential cation channel subfamily V member 1 (Homo sapiens) (UniProt Q8NER1) (assay: HTS Assay for Compounds that Act as Agonists of the Vanilloid Receptor 1). Conditions: TRPV1-expressing cells, Fluo-8 calcium influx, agonist mode; at 8.33 µM, stronger effect = higher value.
Summary of the method: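 Cells expressing TRPV1 were dye-loaded with Fluo-8 and read kinetically: 10 s baseline, 3 min after compound (agonist portion), then 2 min after EC20 capsaicin (allosteric enhancer portion). Calcium-bound dye fluorescence at 480/520 nm.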
`COc1ccccc1CCC(=O)Nc1cccc(S(=O)(=O)N2CCOCC2)c1` was tested, and the activation was inconclusive: 32.3%. In the case of `Cc1cc(=O)oc2cc(NC(=S)NNC(=O)c3c(Cl)cnn3C)ccc12`, the activation is reported as inconclusive: 31.4%. For `COc1ccc(OC)c(NS(=O)(=O)c2ccc(Br)s2)c1`, the activation was inactive: 1.47%. `CC(=O)N(Nc1ccccc1)c1ccccc1` was tested, and the activation was inactive: -0.636%. With `C#CCOCCOCCOCCNc1nc(N2CCN(C(=O)[C@H](CCC(=O)O)n3cc(C(N)Cc4ccc(O)cc4)nn3)CC2)nc(N2CCN(C(=O)[C@H](CCCCN)n3cc(C(N)[C@H](C)CC)nn3)CC2)n1` (some centres undefined) the activation was inactive: 4.94%. In the case of `O=C(c1ccc(CS(=O)(=O)c2ccc(Br)cc2)o1)N1CCCCCC1`, the activation is reported as inactive: 18.6%. In the case of `CCCOC1CCCN(C(=O)c2cc(COc3ccc(-n4cncn4)cc3)on2)C1` (centres undefined), the activation is reported as inconclusive: 31.4%. With `CC(C)(C)n1nnnc1C(c1cccs1)N(Cc1ccccc1)Cc1cccnc1` (centres undefined) the activation was inconclusive: 30.2%. With `CC(Oc1ccc2c3c(c(=O)oc2c1)CCCC3)C(=O)NCc1ccncc1` (centres undefined) the activation was inconclusive: 45.4%. In the case of `Cc1nnc(C)n1/N=C/c1cc(Br)cc(Br)c1O`, the activation is reported as inactive: 1.78%. For `CCCC1C(=O)N(Cc2ccccc2)C(=O)CC1C` (centres undefined), the activation was inconclusive: 32.7%. For `O=S(=O)(/N=C(/Nc1ccc(Cl)c(S(=O)(=O)N2CCOCC2)c1)c1ccc(F)cc1)c1ccccc1`, the activation was inconclusive: 44.4%. In the case of `Nc1nc(N2CCN(C(=O)c3ccco3)CC2)nc2ccccc12`, the activation is reported as inactive: 2.37%. With `Fc1ccc(OCc2cc(-c3ccccc3)no2)cc1` the activation was inconclusive: 38.3%. With `O=C(Nc1ccc([N+](=O)[O-])cc1)c1ccccc1` the activation was inconclusive: 41.3%. `CC1(C(=O)Nc2ccc3ccccc3c2)CC1(Br)Br` (centres undefined) was tested, and the activation was inconclusive: 35.3%. In the case of `CCOC(=O)C1C(C(=O)OCC)C1(c1ccccc1)c1ccccc1` (centres undefined), the activation is reported as inconclusive: 43.7%. `CC1(C)CC(=O)C=C(c2ccc3ncccc3c2)C1` was tested, and the activation was inconclusive: 34.2%. For `COC(=O)CSc1nc2cc3c(cc2cc1C)OCCO3`, the activation was inconclusive: 41.7%. For `COc1ccc(CC(=O)OCC(=O)Nc2ccc(Br)cc2)cc1`, the activation was inconclusive: 33.6%. For `O=C(Nc1ccc(F)cc1)Nc1csc2ccccc12`, the activation was inconclusive: 52%. With `Cc1ccc(N2CCN(c3cc(C)nc4nc(C)nn34)CC2)c(C)c1` the activation was inconclusive: 52.9%. `C/C(=N\NC(=O)c1ccccc1)c1ccc2c(c1)OCO2` was tested, and the activation was inactive: 1.63%. `CN(Cc1nc(-c2cccnc2)no1)S(=O)(=O)c1ccc(Br)cc1` was tested, and the activation was inactive: -4.6%. `CCOC(=O)C1CCN(c2c(NCCC(C)C)c(=O)c2=O)CC1` was tested, and the activation was inactive: -3.56%. In the case of `CC(=O)Nc1ccc(N2C(=O)c3cccc4c(O)ccc(c34)C2=O)cc1`, the activation is reported as inconclusive: 67%. With `CC1CCCN(c2nc(-c3cccnc3)nc3scc(-c4ccccc4)c23)C1` (centres undefined) the activation was inactive: 8.45%. `O=C(Nc1ccccc1)OCCNC(=O)c1cccc(Cl)c1` was tested, and the activation was inconclusive: 33.7%. For `O=C(c1sc2cc([N+](=O)[O-])ccc2c1Cl)N1CCOCC1`, the activation was inactive: -0.185%. `Cc1ccc(C2=CC(=O)CC(C)(C)C2)cc1` was tested, and the activation was inconclusive: 37.7%. With `O=C1c2cccc([N+](=O)[O-])c2C(=O)N1CCO` the activation was inactive: 1.95%. With `COc1ccc(CCNc2cc(C)nc3c(-c4ccccc4)cnn23)cc1OC` the activation was inconclusive: 56.2%. With `CCc1cc(Cn2nc(-c3ccccc3)cc2C(=O)NCC2CC2)on1` the activation was inconclusive: 67.1%. In the case of `Cc1ccc(NC(=O)C(=O)NCc2ccncc2)cc1`, the activation is reported as inconclusive: 45.8%. For `CC(NC(=O)c1cccnc1)C(c1ccccc1)N1CCN(C)CC1` (centres undefined), the activation was inactive: -2.58%. For `COc1ccc(Cc2noc(CN(C)CC3CCN(Cc4ccccc4)CC3)n2)cc1OC`, the activation was inconclusive: 30.8%. With `Cc1ccc2c(C)c(C(=O)NCCc3ccco3)oc2c1C` the activation was inconclusive: 46.8%. For `Clc1ccccc1-c1nnc2sc(C3COc4ccccc4O3)nn12` (centres undefined), the activation was inconclusive: 31.5%. With `N#Cc1ccc(OCC(=O)N2CCN(c3ccc(C(F)(F)F)cn3)CC2)cc1` the activation was inactive: 22.3%. With `Cc1ccc2nc(NC(=O)C3CC3C)sc2c1` (centres undefined) the activation was inconclusive: 37.3%. With `CN(C)c1ccc(CNn2cnnc2SCc2ccc(F)cc2)cc1` the activation was inconclusive: 38.7%. `Cc1nc(-c2ccccc2O)n(S(=O)(=O)N(C)C)n1` was tested, and the activation was inactive: -14.9%. `CC(C)CCN1C(=O)c2ccc(C(=O)NCc3ccco3)cc2C1=O` was tested, and the activation was inconclusive: 46%. With `O=C(c1ccc(Br)s1)N1CCN(c2ccccn2)CC1` the activation was inconclusive: 63.4%. With `Oc1cccc(Nc2nc(-c3ccccc3Cl)nc3ccccc23)c1` the activation was inconclusive: 31.9%. In the case of `CC(C)(C)n1ncc2c(=O)n(Cc3c(Cl)cccc3Br)cnc21`, the activation is reported as inconclusive: 31.2%. With `O=C(Nc1ccccc1)c1cccnc1NCCc1ccccc1` the activation was inconclusive: 42.4%. For `COc1cccc(-c2csc(N3CCN(C(=O)Nc4ccccc4Cl)CC3)n2)c1`, the activation was inactive: 6.1%. With `Cc1ccn2c(NC3CCCC3)c(-c3ccccn3)nc2c1` the activation was inconclusive: 69.2%. In the case of `COc1cccc(CNC(=O)CCC2CCCN(Cc3cc(Cl)ccc3O)C2)c1` (centres undefined), the activation is reported as inconclusive: 44.2%. `COCc1ccc(C(=O)N2CCCC(C(=O)c3ccc(SC)cc3)C2)s1` (centres undefined) was tested, and the activation was inconclusive: 33.4%. In the case of `CCCc1cc(=O)[nH]c(SCC(=O)NC(=O)NC2CCCC2)n1`, the activation is reported as inactive: -0.109%. For `CCc1ccc(OCC(=O)Nc2ccncc2)cc1`, the activation was inconclusive: 44.2%. For `O=C(NCC1CC1)c1onc(CSc2ccc(F)c(F)c2)c1C(=O)NCC1CC1`, the activation was inconclusive: 38.3%. With `O=C(CCc1nc(-c2ccccc2Cl)no1)Nc1cccnc1` the activation was inconclusive: 61.6%. In the case of `O=C(Cc1ccccc1)Nc1ccccc1C(=O)Nc1ccccc1`, the activation is reported as inconclusive: 36.6%. `O=C(O)c1ccc(N=NNc2cccc([N+](=O)[O-])c2)cc1` was tested, and the activation was inactive: 1.34%. In the case of `O=C(CSc1ccc2nnc(CCNC(=O)c3ccccc3)n2n1)NC1CCCC1`, the activation is reported as inconclusive: 35.7%. `O=C(COC(=O)c1c2c(nc3ccccc13)CCCC2)c1ccc(Br)s1` was tested, and the activation was inconclusive: 37.6%.
